# According to paper PMC7840889:
# These are yes or no findings as the source states them, for the method shown. Some binding calls cover weakened binding; strength is not graded here. Sequences can lack the tags named with a protein.
# T1: FLAG-tagged full-length human TSC1 (human), Q92574
# T1 chain: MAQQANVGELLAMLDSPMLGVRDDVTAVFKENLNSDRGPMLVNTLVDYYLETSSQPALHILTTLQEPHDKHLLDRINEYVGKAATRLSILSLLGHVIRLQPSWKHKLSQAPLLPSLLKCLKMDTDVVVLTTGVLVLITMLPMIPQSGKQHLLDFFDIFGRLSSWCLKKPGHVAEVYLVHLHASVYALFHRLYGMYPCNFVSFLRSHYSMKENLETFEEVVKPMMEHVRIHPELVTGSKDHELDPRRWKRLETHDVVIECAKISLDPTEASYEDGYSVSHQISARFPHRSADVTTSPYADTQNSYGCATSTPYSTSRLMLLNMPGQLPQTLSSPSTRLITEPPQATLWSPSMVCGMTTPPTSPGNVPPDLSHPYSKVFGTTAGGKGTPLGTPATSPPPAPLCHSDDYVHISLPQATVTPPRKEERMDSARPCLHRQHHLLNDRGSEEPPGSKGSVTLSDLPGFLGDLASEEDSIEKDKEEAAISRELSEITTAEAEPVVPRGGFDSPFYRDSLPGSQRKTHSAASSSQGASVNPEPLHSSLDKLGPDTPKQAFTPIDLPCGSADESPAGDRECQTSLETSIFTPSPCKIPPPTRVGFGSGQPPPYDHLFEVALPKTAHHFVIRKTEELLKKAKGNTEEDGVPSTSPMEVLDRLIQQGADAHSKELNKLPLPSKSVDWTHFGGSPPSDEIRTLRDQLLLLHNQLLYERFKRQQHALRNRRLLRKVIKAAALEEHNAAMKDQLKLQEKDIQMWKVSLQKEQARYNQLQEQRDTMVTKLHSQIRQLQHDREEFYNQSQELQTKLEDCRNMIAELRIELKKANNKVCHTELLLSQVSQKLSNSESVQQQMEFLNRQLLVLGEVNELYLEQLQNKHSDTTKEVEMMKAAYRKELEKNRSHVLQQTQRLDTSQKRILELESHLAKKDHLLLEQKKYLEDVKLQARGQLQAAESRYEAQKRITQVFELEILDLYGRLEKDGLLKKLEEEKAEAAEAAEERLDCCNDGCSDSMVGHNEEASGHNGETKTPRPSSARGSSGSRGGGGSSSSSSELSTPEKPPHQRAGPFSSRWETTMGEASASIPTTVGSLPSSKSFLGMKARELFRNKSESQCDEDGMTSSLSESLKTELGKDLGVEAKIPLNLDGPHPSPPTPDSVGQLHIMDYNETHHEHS
# B1: FLAG-tagged full-length human TSC1, Q92574-1 1-1164 (protein)
# chain: T1 chain
# Target: T1, FLAG-tagged full-length human TSC1 …
# Experiment: cryo-EM structure; single-particle cryo-EM of purified TSCCFL at 0.1-0.2 mg/mL on graphene oxide; 25 mM K-HEPES pH 7.6, 175 mM KCl or 150 mM LiCl, 1 mM TCEP; body 4.6 Å, pincer 8.1 Å, tail 8.2 Å; both purified
# Conditions: remark: other sources report otherwise
binder,measurement,value
B1,binding,binds
